Measurements reported in PubChem BioAssay AID540276 (National Center for Advancing Translational Sciences (NCATS), 2011).
Among all 300,000 compounds or so, about 5,400 (1.8%) were called active. Inconclusive results, whose numbers are uncertain, are shown with a selection of clear calls. Calls come from the whole dose curve; tested in HEK293 cells. Where the call is inconclusive, the potency comes from a doubtful curve fit.

Experiment: qHTS for inhibitors of binding or entry into cells for Marburg Virus
Settings: Marburg virus pseudotyped entry inhibition, cell reporter; series mostly up to 37.8 µM
Potency is the fitted concentration of half-maximal effect.

Question: Which Potency does the source give for COC(=O)c1ccc(C2c3[nH]c4ccccc4c3C[C@H]3C(=O)N(C)CC(=O)N23)cc1 (stereo partly drawn) here?
Answer: inconclusive: 22.4 µM [inhibitor, single point]

Question: Which Potency does the source give for Cc1ccc(C)c(S(=O)(=O)c2c(N)n(/N=C/c3ccco3)c3nc4ccccc4nc23)c1 here?
Answer: inconclusive: 32.6 µM [inhibitor, single point]

Question: Which Potency does the source give for O=C(CCS(=O)(=O)c1ccc(Cl)cc1)NCCc1c[nH]c2ccccc12 here?
Answer: inconclusive: 25.1 µM [activator, single point]

Question: With C/C(=N\Nc1ccc(S(=O)(=O)N2CCOCC2)cc1[N+](=O)[O-])C(C)C as the molecule, how does the Potency read?
Answer: inconclusive: 0.316 µM [inhibitor, full curve, poor fit]

Question: For COC(=O)C(C(=O)OC)C(C[N+](=O)[O-])c1ccc(OC)c(OC)c1 (stereo not drawn), which Potency is on record?
Answer: inactive

Question: Which Potency does the source give for CCOC(=O)c1ccc(CSc2nncn2N)o1 here?
Answer: inconclusive: 16.4 µM [activator, single point]

Question: Which Potency does the source give for COc1ccc(C(C(=O)NC2CCCCC2)N(C(=O)CCl)c2ccc(C)cc2)cc1 (stereo not drawn) here?
Answer: inconclusive: 35.5 µM [inhibitor, single point]

Question: For COc1ccccc1/C=C(/NC(=O)c1ccccc1)C(=O)NCCN1CCOCC1, which Potency is on record?
Answer: inactive

Question: With Cc1nc(Cl)sc1C(=O)Nc1cccc(C(F)(F)F)c1 as the molecule, how does the Potency read?
Answer: inconclusive: 15.8 µM [inhibitor, single point]

Question: With COc1ccccc1-n1c(=S)sc2c(=O)n(Cc3ccco3)c(SC)nc21 as the molecule, how does the Potency read?
Answer: inconclusive: 29.1 µM [inhibitor, single point]

Question: With CCCCc1nc2c(c3c1C[C@H](C)OC3)CN(C(=O)c1cc(I)ccc1F)CC2 as the molecule, how does the Potency read?
Answer: inconclusive: 0.237 µM [inhibitor, full curve, poor fit]

Question: For Nc1nc(NCc2ccco2)nc(N2CCOCC2)c1[N+](=O)[O-], which Potency is on record?
Answer: inactive

Question: For Cc1cc(=O)c2cc(Br)ccc2[nH]1, which Potency is on record?
Answer: inconclusive: 0.0052 µM [inhibitor, full curve, poor fit]

Question: For Oc1ccc(/C=N/N(c2ccccc2)c2ccccc2)cc1O, which Potency is on record?
Answer: inactive

Question: Which Potency does the source give for OC1(c2ccc(Cl)cc2)CCN(Cc2c[nH]c3ccccc23)CC1 here?
Answer: active: 2.82 µM

Question: Which Potency does the source give for CCNc1nc(SC)nc(N(C#N)CC(=O)OC)n1 here?
Answer: inconclusive: 2.31 µM [inhibitor, partial curve]

Question: With Fc1ccc(/C=C2\CCCC3=C2Nc2ncnn2C3c2ccc(F)cc2)cc1 (stereo not drawn) as the molecule, how does the Potency read?
Answer: inconclusive: 11.2 µM [inhibitor, partial curve, poor fit]

Question: With CC1CCC/C(=C\Nc2ccc(O)cc2)C1=O (stereo not drawn) as the molecule, how does the Potency read?
Answer: inactive

Question: Which Potency does the source give for Cc1ccccc1C(O)c1cccnc1 (stereo not drawn) here?
Answer: inactive

Question: With CC(C)N(CC#CCC1(O)c2ccccc2-c2ccccc21)CCO as the molecule, how does the Potency read?
Answer: inconclusive: 5.17 µM [inhibitor, partial curve, poor fit]

Question: Which Potency does the source give for CC[n+]1ccc(C(=O)NCc2ccccc2)cc1 here?
Answer: inconclusive: 6.31 µM [activator, single point]

Question: Which Potency does the source give for COc1ccc(/C=C/C(=O)OCC(=O)c2c(C)[nH]c3ccccc23)cc1OC here?
Answer: inactive

Question: For COCC(=O)N1CCC(n2nnc3cc(F)ccc32)CC1, which Potency is on record?
Answer: inconclusive: 0.259 µM [inhibitor, partial curve, poor fit]

Question: Which Potency does the source give for COc1ccc2c(C)c(CC(=O)NCCc3ccc(Cl)cc3)c(=O)oc2c1C here?
Answer: inactive

Question: With Cc1cccc(N(C(=O)c2snc(C(N)=O)c2N)C(C(=O)NCC2CCCO2)c2cccs2)c1 (stereo not drawn) as the molecule, how does the Potency read?
Answer: inconclusive: 20.6 µM [inhibitor, single point]

Question: With COc1cc(-c2cc(OC)c3c(C)oc(C)c3c(=O)c2)ccc1OC(=O)c1ccc(C)cc1 as the molecule, how does the Potency read?
Answer: inconclusive: 35.5 µM [activator, single point]

Question: With CC(=O)N1CCN(c2ccc(Oc3nnnn3-c3ccccc3)cc2)CC1 as the molecule, how does the Potency read?
Answer: inconclusive: 1.83 µM [inhibitor, partial curve, poor fit]

Question: Which Potency does the source give for CCn1cc(CN2CCc3c([nH]c4ccccc34)C2c2cccc(OC)c2OC)c(C)n1 (stereo not drawn) here?
Answer: inconclusive: 20 µM [inhibitor, single point]

Question: Which Potency does the source give for COc1ccc(NS(=O)(=O)c2ccc(OC)c(NC(=O)CCC3CCCC3)c2)cc1 here?
Answer: inconclusive: 6.31 µM [inhibitor, single point]

Question: Which Potency does the source give for C/C=C(/C(=C/C)c1ccc(O)cc1)c1ccc(O)cc1 here?
Answer: inactive

Question: With COc1ccc2c(c1)C(=O)[C@H](OC(=O)Nc1cc(OC)c(OC)c(OC)c1)[C@@H](c1ccc(OC)c(Br)c1)O2 as the molecule, how does the Potency read?
Answer: inconclusive: 3.76 µM [inhibitor, partial curve]

Question: For COc1ccc(NC(=O)CN2C(=O)NC(C)(c3ccccc3)C2=O)c(OC)c1 (stereo not drawn), which Potency is on record?
Answer: inactive

Question: With Clc1ccc(N(CC2CO2)CC2CO2)cc1 (stereo not drawn) as the molecule, how does the Potency read?
Answer: inconclusive: 35.5 µM [inhibitor, single point]

Question: For O=C(Cn1cc(C(=O)C2CCCCC2)c2ccccc21)Nc1ccccc1Cl, which Potency is on record?
Answer: inactive

Question: Which Potency does the source give for COc1ccc(COC(=O)N/N=C2\C[C@@H](O)[C@@H](O)[C@@H]3[C@@H]4C(=O)N(C5CCCCC5)C(=O)[C@@H]4CC[C@@H]23)cc1 here?
Answer: inconclusive: 0.0067 µM [inhibitor, full curve, poor fit]

Question: For COC(=O)C1=CNC=C(C(=O)OC)C1c1ccc(Cl)cc1, which Potency is on record?
Answer: inconclusive: 0.282 µM [inhibitor, full curve, poor fit]

Question: With [O-]/C(=C(\C(=S)Nc1cccc2ccccc12)[n+]1ccccc1)c1ccc(OC(F)F)cc1 as the molecule, how does the Potency read?
Answer: inactive

Question: Which Potency does the source give for COc1ccc(CCN2C(=O)CSC2=Nc2ccc(C(C)C)cc2)cc1OC here?
Answer: inconclusive: 17.8 µM [inhibitor, partial curve, poor fit]

Question: For O=C(COc1ccc(Cl)cc1Cl)NCc1ccco1, which Potency is on record?
Answer: inactive

Question: Which Potency does the source give for CCNc1ccc(S(=O)(=O)N(C)C)cc1NCC(=O)Nc1ccc(Br)cc1F here?
Answer: inconclusive: 18.4 µM [inhibitor, single point]

Question: Which Potency does the source give for O=C(NCc1ccc(Cl)cc1)N1CCN(S(=O)(=O)c2ccccc2)CC1 here?
Answer: inactive

Question: For COc1ccc(/C=N\NC(=O)c2ccccc2Cl)cc1COc1c(F)c(F)c(F)c(F)c1F, which Potency is on record?
Answer: inconclusive: 6.31 µM [inhibitor, single point]

Question: With Cc1cccc(-c2cc3c(N=O)c4ccccc4c-3n[nH]2)c1 as the molecule, how does the Potency read?
Answer: inconclusive: 12.6 µM [inhibitor, partial curve, poor fit]
